Assay results published in US20220112285A1 (UNIVERSITY OF BIRMINGHAM, published 2022).
These are yes or no findings as the source states them, for the method shown. Some results given as binding are weak or reduced against the parent protein; the word gives no strength.

What was measured:
[1] = biological target: T1, recombinant dimeric human G6b-B (human, UniProt O95866 18-142, limits assumed); experiment: plate binding assay, coated protein, 10 µg/ml antibody, A450 (FIG. 8)
T1 construct: also called G6b-B dimer; dimeric G6b-B
T1 sequence (looked up): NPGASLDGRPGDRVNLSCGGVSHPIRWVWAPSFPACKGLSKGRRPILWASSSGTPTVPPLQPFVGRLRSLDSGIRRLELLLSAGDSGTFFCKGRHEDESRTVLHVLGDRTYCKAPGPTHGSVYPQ

[2] = biological target: T2, recombinant monomeric human G6b-B (human, UniProt O95866 18-142, limits assumed); experiment: as above
T2 construct: also called G6b-B monomer; monomeric G6b-B
T2 sequence (looked up): T1 sequence (looked up)

[3] = biological target: T1, recombinant dimeric human G6b-B; experiment: plate binding assay (FIG. 8)
[4] = biological target: T2, recombinant monomeric human G6b-B; experiment: plate binding assay (FIG. 8)

Measured: binding

B1: anti-G6b mouse monoclonal antibody 17-4 (antibody, mouse IgG1, kappa, V domains shown)
VH: EVQLQQSGAELVKPGASVKLSCTASGFNIKETYIHWVKQRPEQGLEWIGRIDPADVYGRYDPKFQGKATITADTSSNSAYLQVSSLTSEDTAVYYCARSYGSSYGIDYWGQGTSVTVSS
VL: DIQMTQTTSSLSASLGDRVTISCRASQDISNYLNWYQQKPDGTVKLLIYYTSTLHSGVPSRFSGSGSGTDYSLTISNLEQEDVATYFCQQGYTLPWTFGGGTKLEIKR
notes: The entries may include leader peptides, since VH CDR2 residues are numbered 69 and 71; no cleavage site is stated; also called exemplary antibody 17-4; mAb 17-4
binds: all assays above
